Experimental data taken from patent US20080268015A1 (AFFINERGY, published 2008).
Results are given in words; binding and its absence hold for the method and conditions named. Some binding calls cover weakened binding; strength is not graded here.

The chains behind the UniProt entries cited, without tags or fusion partners. Residues count along the entry.
UniProt P18075, residues 293-431: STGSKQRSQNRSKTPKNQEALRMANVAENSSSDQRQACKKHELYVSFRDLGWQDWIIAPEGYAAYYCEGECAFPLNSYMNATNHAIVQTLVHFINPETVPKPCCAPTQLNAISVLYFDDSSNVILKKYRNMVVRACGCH
UniProt P22003, residues 317-454: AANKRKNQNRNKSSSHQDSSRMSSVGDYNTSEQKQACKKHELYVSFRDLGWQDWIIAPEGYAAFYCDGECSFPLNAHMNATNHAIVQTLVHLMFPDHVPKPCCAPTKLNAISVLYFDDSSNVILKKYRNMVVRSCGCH

Tests used:
[1] = biological target: BMP7 (Bone Morphogenetic Protein 7) (UniProt P18075); test: ELISA-format assay
[2] = biological target: T1, BMP14 (Bone Morphogenetic Protein 14) (UniProt P43026); test: ELISA-format assay
T1 sequence (looked up): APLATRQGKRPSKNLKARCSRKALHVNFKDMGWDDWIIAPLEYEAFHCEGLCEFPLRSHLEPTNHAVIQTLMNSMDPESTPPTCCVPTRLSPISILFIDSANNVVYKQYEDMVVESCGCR

[3] = biological target: T2, BMP4 (Bone Morphogenetic Protein 4) (UniProt P12644); test: ELISA-format assay
T2 sequence (looked up): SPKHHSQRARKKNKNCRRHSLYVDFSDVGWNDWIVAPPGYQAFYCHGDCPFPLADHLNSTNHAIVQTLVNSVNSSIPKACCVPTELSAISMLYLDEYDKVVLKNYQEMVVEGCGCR

[4] = biological target: T3, BMP2 (Bone Morphogenetic Protein 2) (UniProt P12643); test: ELISA-format assay; immobilized peptide also extracted BMP2 from spiked plasma and bone marrow aspirate
T3 sequence (looked up): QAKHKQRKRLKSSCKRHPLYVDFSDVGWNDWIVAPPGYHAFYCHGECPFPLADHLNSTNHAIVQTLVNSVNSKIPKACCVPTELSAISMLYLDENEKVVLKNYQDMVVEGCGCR

[5] = biological target: BMP5 (Bone Morphogenetic Protein 5) (UniProt P22003); test: ELISA-format assay

Measured: binding

B1: peptide including the amino acid sequence of SEQ ID NO:93 (BMP-binding peptide, Motif 2) (peptide)
peptide: SSSVDLYFPLKGDVVSR
not listed: [5]
binds: all other assays above

B2: peptide including the amino acid sequence of SEQ ID NO:91 (BMP-binding peptide, Motif 1 consensus sequence) (peptide)
peptide: GGGAWEAFSSLSGSRV
binds: all assays above

B3: peptide including the amino acid sequence of SEQ ID NO:118 (BMP-binding peptide, Motif 2 consensus sequence) (peptide)
peptide: GGALGFPLKGEVVEGWA
not listed: [5]
binds: all other assays above

B4: peptide including the amino acid sequence of SEQ ID NO:58 (BMP-binding peptide, Motif 1) (peptide)
peptide: SSWEVFSSLESGSVGAGAGSR
not listed: [5]
binds: all other assays above
